# Source: patent US10563263B2, “Genetic polymorphisms associated with statin response and cardiovascular diseases, methods of detection and uses thereof” (CELERA CORPORATION, priority 2010, dated 2020)
# This continues a long series; more values of the same kind are listed elsewhere.
# Tested on: CHD
# Assay: Meta-analysis of CARE and WOSCOPS combined, synergy index, CHD endpoint
# Assay type: in vivo, human
# Excerpt: Tables 4-5 provide meta-analyses of CARE and WOSCOPS combined (2nd section of each table) for two endpoints (CHD and CVD) and three genetic models (dominant, recessive, and additive), as well as logistic regression analyses of CARE (3rd section of each table) and WOSCOPS (4th section of each table) individually.
# Tables 12 and 17 provide results of meta-analysis of the CARE and WOSCOPS sample sets combined by direct genotyping and by imputing genotypes.
# “P” indicates the p-value, and “P(R)” (or “P.R.”) indicates the p-value random effect. Both of these are p-values corresponding to a statistical test of whether the combined synergy index is equal to one but use different assumptions to derive the p-value. “P” is calculated using a fixed effects model, and “P(R)” is calculated using a random effects model.
# “OR” indicates the odds ratio (synergy index) calculated from a fixed effects model, and “OR(R)” (or “OR.R.”) indicates the odds ratio (synergy index) calculated from a random effects model.
# [1] = rs2488557 allele C DOMINANT Imputed
# [2] = rs2560708 allele T ADDITIVE Imputed
# [3] = rs2617841 allele G DOMINANT Imputed
# [4] = rs2622499 allele G DOMINANT Imputed
# [5] = rs2642936 allele T ADDITIVE Imputed
# [6] = rs2660633 allele A DOMINANT Imputed
# [7] = rs2660634 allele C DOMINANT Imputed
# [8] = rs2660648 allele A ADDITIVE Imputed
# [9] = rs2660648 allele A DOMINANT Imputed
# [10] = rs2681505 allele T ADDITIVE Imputed
# [11] = rs2832634 allele G ADDITIVE Imputed
# [12] = rs2832637 allele T ADDITIVE Imputed
# [13] = rs2843167 allele A DOMINANT Imputed
# [14] = rs2876227 allele C ADDITIVE Imputed
# [15] = rs2876227 allele C GENOTYPIC Imputed
# [16] = rs2882097 allele A DOMINANT Imputed
# [17] = rs2909862 allele G DOMINANT Imputed
# [18] = rs3001945 allele T DOMINANT Imputed
# [19] = rs3011020 allele C DOMINANT Imputed
# [20] = rs3743794 allele G DOMINANT Imputed
# [21] = rs3756154 allele C ADDITIVE Imputed
# [22] = rs3756154 allele C DOMINANT Imputed
# [23] = rs3775850 allele A DOMINANT Imputed
# [24] = rs3775851 allele C DOMINANT Imputed
# [25] = rs3793044 allele C ADDITIVE Imputed
# [26] = rs3793044 allele C DOMINANT Imputed
# [27] = rs3793053 allele C DOMINANT Imputed
# [28] = rs3796246 allele G DOMINANT Imputed
# [29] = rs3806003 allele A ADDITIVE Imputed
# [30] = rs3806003 allele A DOMINANT Imputed
# [31] = rs3806004 allele T DOMINANT Imputed
# [32] = rs3806010 allele T DOMINANT Imputed
# [33] = rs3806014 allele T DOMINANT Imputed
# [34] = rs3806015 allele A DOMINANT Imputed
# [35] = rs3806018 allele A DOMINANT Imputed
# [36] = rs3806019 allele A DOMINANT Imputed
# [37] = rs3806024 allele T DOMINANT Imputed
# [38] = rs3915080 allele A GENOTYPIC Imputed
# [39] = rs3942254 allele T ADDITIVE Imputed
# [40] = rs3942254 allele T DOMINANT Imputed
# [41] = rs3945085 allele A DOMINANT Imputed
# [42] = rs3976737 allele G ADDITIVE Imputed
# [43] = rs4029119 allele G ADDITIVE Imputed
# [44] = rs4029119 allele G DOMINANT Imputed
# [45] = rs4076201 allele G GENOTYPIC Imputed
structure (smiles),measurement,setting,value
"CC[C@H](C)C(=O)O[C@H]1C[C@H](O)C=C2C=C[C@H](C)[C@H](CC[C@@H](O)C[C@@H](O)CC(=O)O)[C@H]21 [Pravastatin, pravastatin]",OR,[1],0.5776
same,OR(R),[1],0.5776
same,Meta-analysis OR,rs2492367 allele A vs G (ref),0.61
same,Meta-analysis OR,rs2495295 allele G vs A (ref),0.66
same,OR,[2],0.6487
same,OR(R),[2],0.6487
same,OR,[3],0.633
same,OR(R),[3],0.633
same,OR,[4],0.6573
same,OR(R),[4],0.6573
same,OR,[5],1.4936
same,OR(R),[5],1.4936
same,OR,[6],0.6278
same,OR(R),[6],0.6278
same,OR,[7],0.6278
same,OR(R),[7],0.6278
same,OR,[8],0.6664
same,OR(R),[8],0.6664
same,OR,[9],0.6016
same,OR(R),[9],0.6016
same,OR,[10],0.6474
same,OR(R),[10],0.6474
same,OR,[11],1.8637
same,OR(R),[11],1.8637
same,OR,[12],1.8637
same,OR(R),[12],1.8637
same,OR,[13],0.6208
same,OR(R),[13],0.6208
same,Meta-analysis OR,rs2843171 allele A vs G (ref),0.64
same,Meta-analysis OR,"rs2869680, A1 (non-ref) A, A2 (ref) G",0.75
same,OR,[14],1.3526
same,OR(R),[14],1.3526
same,OR,[15],1.9073
same,OR(R),[15],1.9073
same,Meta-analysis OR,"rs2880563, A1 (non-ref) G, A2 (ref) A",1.41
same,OR,[16],1.5819
same,OR(R),[16],1.5819
same,OR,[17],1.7275
same,OR(R),[17],1.7275
same,OR,[18],1.5254
same,OR(R),[18],1.5254
same,OR,[19],1.4992
same,OR(R),[19],1.4992
same,Meta-analysis OR,"rs3732136, A1 (non-ref) A, A2 (ref) G",1.51
same,OR,[20],0.6224
same,OR(R),[20],0.6224
same,OR,[21],0.7236
same,OR(R),[21],0.7236
same,OR,[22],0.6536
same,OR(R),[22],0.6536
same,Meta-analysis OR,rs3759607 allele G vs A (ref),1.96
same,OR,[23],0.6779
same,OR(R),[23],0.6779
same,OR,[24],0.6839
same,OR(R),[24],0.6839
same,OR,[25],1.9638
same,OR(R),[25],1.9638
same,OR,[26],2.0697
same,OR(R),[26],2.0697
same,OR,[27],1.9787
same,OR(R),[27],1.9787
same,OR,[28],0.5398
same,OR(R),[28],0.5398
same,OR,[29],1.9638
same,OR(R),[29],1.9638
same,OR,[30],2.0697
same,OR(R),[30],2.0697
same,OR,[31],1.9576
same,OR(R),[31],1.9576
same,OR,[32],1.9576
same,OR(R),[32],1.9576
same,OR,[33],1.9649
same,OR(R),[33],1.9649
same,OR,[34],1.9576
same,OR(R),[34],1.9576
same,OR,[35],1.9419
same,OR(R),[35],1.9419
same,OR,[36],1.9576
same,OR(R),[36],1.9576
same,OR,[37],1.9787
same,OR(R),[37],1.9787
same,OR,[38],2.0907
same,OR(R),[38],2.0907
same,OR,[39],0.7166
same,OR(R),[39],0.7166
same,OR,[40],0.6139
same,OR(R),[40],0.6139
same,OR,[41],1.5947
same,OR(R),[41],1.5947
same,OR,[42],0.6147
same,OR(R),[42],0.6147
same,OR,[43],0.2569
same,OR(R),[43],0.2569
same,OR,[44],0.2637
same,OR(R),[44],0.2637
same,OR,[45],3.0129
same,OR(R),[45],3.0129
same,OR,rs4076201 allele G RECESSIVE Imputed,2.9721
